Measured data: PubChem BioAssay AID1224830 (NIAID, 2016)
The deposit covers about 18,000 reagents; this is an unselected part. Over the whole deposit, about 2,900 (16%) are marked active. 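Calls are made per well; low scores hint the gene aids the LPS response, high scores that it dampens it.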 Unmarked entries are inactive. Repeated entries: four replicate wells of each siRNA pool.

Screen: 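Host factors that control LPS-induced TNF expression in human macrophages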 (primary screen)
Cells: human THP-1 monocytic leukaemia cells, TNF dual-luciferase reporter clone, PMA-differentiated to macrophage-like cells
Knock-down reagent: siRNA pool against human genes, 50 nM
Time to read-out: LPS for 4 h, given about 3 days after siRNA transfection
Challenge: bacterial LPS (TLR4 ligand), 10 ng/ml
Measured: 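Ratio of firefly to renilla light, scaled to the plate median and expressed as a robust z-score per replicate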
Scale: TNF reporter robust z-score: higher = stronger TNF reporter response to LPS
Hit rule: 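a well is active when its z-score exceeds 2.8 or falls below -1.5; control wells carry no call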

no.	Target gene	TNF reporter robust z-score
1	BSG	-0.71
2	BSG	0.21
3	BSG	-0.33
4	BSG	0.53
5	CDC7	0.54
6	CDC7	0.15
7	CDC7	-0.15
8	DSCC1	0.48
9	DSCC1	0.57
10	DSCC1	0.79
11	DSCC1	-0.62
12	KRT74	1.66
13	KRT74	0.84
14	KRT74	1.35
15	KRT74	1.62
16	CSE1L	2.41
17	CSE1L	2.31
18	CSE1L	1.79
19	CSE1L	2.46
20	TMEM126B	-0.06
21	TMEM126B	0.99
22	TMEM126B	0.93
23	TMEM126B	-0.09
24	PRKAR2B	-0.08
25	PRKAR2B	-1.02
26	PRKAR2B	-0.95
27	PRKAR2B	-1.07
28	RLIG1	1.19
29	RLIG1	1.22
30	RLIG1	1.13
31	RLIG1	1.56
32	STEEP1	-1.22
33	STEEP1	-0.86
34	STEEP1	-0.71
35	STEEP1	-0.72
36	BRICD5	0.8
37	BRICD5	2.3
38	BRICD5	0.72
39	BRICD5	1.43
40	COL5A1	-0.11
41	COL5A1	0.82
42	COL5A1	0.51
43	COL5A1	3.1 (active)
44	PEX13	-1.44
45	PEX13	-1.19
46	PEX13	-0.87
47	PEX13	-0.91
48	HNF4A	-0.21
49	HNF4A	-1.03
50	HNF4A	-0.92
51	HNF4A	0.01
52	F2RL2	-0.92
53	F2RL2	0.3
54	F2RL2	-0.81
55	F2RL2	-0.02
56	NAB1	1.85
57	NAB1	0.22
58	NAB1	-0.19
59	NAB1	0.41
60	NTF4	3.55 (active)
61	NTF4	1.09
62	NTF4	3.42 (active)
63	NTF4	4.43 (active)
64	KRTAP21-1	0.93
65	KRTAP21-1	0.33
66	KRTAP21-1	0.41
67	KRTAP21-1	-0.2
68	SCN2B	0.93
69	SCN2B	2.53
70	SCN2B	0.16
71	SCN2B	0.14
72	CD1A	-0.63
73	CD1A	-0.59
74	CD1A	-1.26
75	CD1A	0.47
76	IKBKG	-1.16
77	IKBKG	-0.37
78	IKBKG	-0.68
79	IKBKG	-0.78
80	ZNF782	-1.33
81	ZNF782	-0.83
82	ZNF782	-1.01
83	ZNF782	-0.96
84	OVCH1	0.46
85	OVCH1	1.25
86	OVCH1	1.8
87	OVCH1	-0.78
88	CHRNA10	-0.85
89	CHRNA10	-0.39
90	CHRNA10	-0.94
91	CHRNA10	0.79
92	KMT2D	2.85 (active)
93	KMT2D	2.31
94	KMT2D	0.27
95	KMT2D	-0.16

Entries listed so far whose gene name starts with Z or z (4):
Target gene	TNF reporter robust z-score
ZNF782	-1.33
ZNF782	-0.83
ZNF782	-1.01
ZNF782	-0.96

Further results follow.
no.	Target gene	TNF reporter robust z-score
96	TCEAL4	0.64
97	TCEAL4	0.32
98	TCEAL4	0.35
99	TCEAL4	0.12
100	ZNF771	0.37
101	ZNF771	-0.68
102	ZNF771	-0.3
103	ZNF771	-0.04
104	YIPF2	0.98
105	YIPF2	1.52
106	YIPF2	0.18
107	YIPF2	1.3
108	POLR2J3	-0.53
109	POLR2J3	-0.76
110	POLR2J3	-0.7
111	POLR2J3	-1.07
112	HIGD1B	-0.71
113	HIGD1B	-0.63
114	HIGD1B	-0.77
115	HIGD1B	-0.36
116	C4BPA	1.72
117	C4BPA	1.1
118	C4BPA	0.84
119	C4BPA	1.51
120	PCDH1	-0.76
121	PCDH1	-0.66
122	PCDH1	-0.86
123	PCDH1	-0.7
124	SCN9A	2.64
125	SCN9A	1.23
126	SCN9A	0.95
127	SCN9A	1.46
128	SLC25A10	3.05 (active)
129	SLC25A10	-0.99
130	SLC25A10	-1.24
131	SLC25A10	-1.6 (active)
132	SIMC1	1.09
133	SIMC1	0.25
134	SIMC1	0.3
135	SIMC1	0.18
136	UHMK1	0.5
137	UHMK1	0.44
138	UHMK1	0.84
139	UHMK1	1.41
140	RIMS2	0.3
141	RIMS2	1.55
142	RIMS2	0.36
143	RIMS2	1.9
